Results reported in PubChem BioAssay AID248 (DTP/NCI, 2004).
The list does not hold the whole screen: it is rich in T/C values a quarter to a half above the control, in often repeated tests (any T/C) and in doses without a T/C. Further doses and runs are listed elsewhere. T/C is the treated group as % of the vehicle group. Some doses have a count of surviving animals in place of a T/C: the source files T/C as zero there, which appears to mark a toxic dose or a test without result, not a measured value. Some survivor counts are full or nearly so, which does not show that the dose was tolerated: survival well below the control is almost never listed, so the zero probably covers shortened survival too. Survivors were counted at the toxicity check, usually on the fifth day, unless a day is given; later deaths do not show. Schedule codes are those of the source, read here as Q, the interval in days (D) or hours (H), X, the number of doses. Some entries were tested several times; their values stand side by side, smallest first. Some schedule codes hold Z or #, which are not explained here. For survival time, this PubChem deposit counts one and a half times the control or more as active, and values a quarter to a half above the control carry no call in these data; other NCI protocols may use other cut-offs. Signs of the kind (2×) stand for listed records that agree. Some T/C values carry the count of animals alive at the toxicity check (mostly the fifth day); where none is given, no animal had died by that day.

Tested on: L1210 leukemia ip in BDF1 mice, survival T/C
Test: NCI In Vivo Anticancer Drug Screen. Data for tumor model L1210 Leukemia (intraperitoneal) in B6D2F1 (BDF1) mice
Conditions: higher T/C = longer survival

N=C(N)SCc1c2ccccc2c(CSC(=N)N)c2ccccc12
survivor count (T/C endpoint: mean survival time, dose: 160.0 mg/kg/injection, schedule: Q01DX006 (iv), vehicle: carboxymethylcellulose (CMC)): 0 of 6 | survivor count (T/C endpoint: mean survival time, dose: 160.0 mg/kg/injection, schedule: Q01DX006 (iv), vehicle: saline): 0 of 6 | T/C (T/C endpoint: mean survival time, dose: 160.0 mg/kg/injection, schedule: Q01DX Z (im), vehicle: carboxymethylcellulose (CMC)): 127 % of control | survivor count (T/C endpoint: mean survival time, dose: 160.0 mg/kg/injection, schedule: Q01DX Z (ip), vehicle: carboxymethylcellulose (CMC)): 6 of 6 | T/C (T/C endpoint: mean survival time, dose: 160.0 mg/kg/injection, schedule: Q#A X Z (ip), vehicle: carboxymethylcellulose (CMC)): 127 % of control [5 of 6 alive] | survivor count (T/C endpoint: mean survival time, dose: 194.0 mg/kg/injection, schedule: Q## X008 (ip), vehicle: carboxymethylcellulose (CMC)): 2 of 10 | T/C (T/C endpoint: mean survival time, dose: 200.0 mg/kg/injection, schedule: Q01DX001 (ip), vehicle: carboxymethylcellulose (CMC)): 112, 123, 125, 140, 215 % of control | T/C (T/C endpoint: mean survival time, dose: 200.0 mg/kg/injection, schedule: Q01DX001 (ip), vehicle: saline): 145 % of control | T/C (T/C endpoint: mean survival time, dose: 200.0 mg/kg/injection, schedule: Q01DX009 (ip), vehicle: carboxymethylcellulose (CMC)): 130 % of control | T/C (T/C endpoint: mean survival time, dose: 200.0 mg/kg/injection, schedule: Q01DX015 (ip), vehicle: carboxymethylcellulose (CMC)): 140 % of control | survivor count (T/C endpoint: mean survival time, dose: 200.0 mg/kg/injection, schedule: Q01DX015 (ip), vehicle: clinical formulation): 0 of 6 | T/C (T/C endpoint: mean survival time, dose: 200.0 mg/kg/injection, schedule: Q04DX005 (ip), vehicle: carboxymethylcellulose (CMC)): 139 % of control | survivor count (T/C endpoint: mean survival time, dose: 200.0 mg/kg/injection, schedule: Q06HX004 (ip), vehicle: carboxymethylcellulose (CMC)): 8 of 10 and 10 of 10 | survivor count (T/C endpoint: mean survival time, dose: 200.0 mg/kg/injection, schedule: Q06HX004 (ip), vehicle: saline): 10 of 10 | survivor count (T/C endpoint: mean survival time, dose: 200.0 mg/kg/injection, schedule: Q08DX002 (ip), vehicle: clinical formulation): 0 of 6 | T/C (T/C endpoint: mean survival time, dose: 200.0 mg/kg/injection, schedule: Q08DX002 (ip), vehicle: saline, evaluated on day 30): 103, 214, 238 % of control | T/C (T/C endpoint: mean survival time, dose: 200.0 mg/kg/injection, schedule: Q08DX002 (ip), vehicle: saline, run until all animals had died): 189 % of control | T/C (T/C endpoint: mean survival time, dose: 200.0 mg/kg/injection, schedule: Q12HX002 (ip), vehicle: carboxymethylcellulose (CMC)): 128 % of control | T/C (T/C endpoint: mean survival time, dose: 256.0 mg/kg/injection, schedule: Q## X003 (ip), vehicle: carboxymethylcellulose (CMC)): 149 % of control | T/C (T/C endpoint: mean survival time, dose: 280.0 mg/kg/injection, schedule: Q01DX001 (ip), vehicle: carboxymethylcellulose (CMC)): 133 and 138 % of control | T/C (T/C endpoint: mean survival time, dose: 280.0 mg/kg/injection, schedule: Q07DX003 (ip), vehicle: carboxymethylcellulose (CMC)): 149 % of control | survivor count (T/C endpoint: mean survival time, dose: 300.0 mg/kg/injection, schedule: Q08DX002 (ip), vehicle: clinical formulation): 0 of 6 | survivor count (T/C endpoint: mean survival time, dose: 320.0 mg/kg/injection, schedule: Q01DX006 (iv), vehicle: carboxymethylcellulose (CMC)): 0 of 6 | survivor count (T/C endpoint: mean survival time, dose: 320.0 mg/kg/injection, schedule: Q01DX006 (iv), vehicle: saline): 0 of 6 | T/C (T/C endpoint: mean survival time, dose: 320.0 mg/kg/injection, schedule: Q01DX Z (im), vehicle: carboxymethylcellulose (CMC)): 132 % of control | T/C (T/C endpoint: mean survival time, dose: 400.0 mg/kg/injection, schedule: Q01DX001 (ip), vehicle: carboxymethylcellulose (CMC)): 126 (2×), 128, 190 % of control | T/C (T/C endpoint: mean survival time, dose: 400.0 mg/kg/injection, schedule: Q01DX001 (ip), vehicle: saline): 143 % of control | T/C (T/C endpoint: mean survival time, dose: 400.0 mg/kg/injection, schedule: Q01DX Z (ip), vehicle: carboxymethylcellulose (CMC)): 126 % of control | T/C (T/C endpoint: mean survival time, dose: 400.0 mg/kg/injection, schedule: Q04DX003 (ip), vehicle: carboxymethylcellulose (CMC)): 132 % of control | T/C (T/C endpoint: mean survival time, dose: 400.0 mg/kg/injection, schedule: Q08DX003 (ip), vehicle: carboxymethylcellulose (CMC)): 138 % of control | survivor count (T/C endpoint: mean survival time, dose: 400.0 mg/kg/injection, schedule: Q#A X002 (ip), vehicle: saline): 10 of 10 | T/C (T/C endpoint: mean survival time, dose: 560.0 mg/kg/injection, schedule: Q07DX003 (ip), vehicle: carboxymethylcellulose (CMC)): 144 % of control | survivor count (T/C endpoint: mean survival time, dose: 640.0 mg/kg/injection, schedule: Q01DX006 (iv), vehicle: saline): 0 of 6 | survivor count (T/C endpoint: mean survival time, dose: 640.0 mg/kg/injection, schedule: Q#A X Z (ip), vehicle: carboxymethylcellulose (CMC)): 5 of 6 | T/C (T/C endpoint: mean survival time, dose: 800.0 mg/kg/injection, schedule: Q01DX001 (ip), vehicle: carboxymethylcellulose (CMC)): 91, 128, 138, 162 % of control | survivor count (T/C endpoint: mean survival time, dose: 800.0 mg/kg/injection, schedule: Q01DX001 (ip), vehicle: saline): 10 of 10 | survivor count (T/C endpoint: mean survival time, dose: 800.0 mg/kg/injection, schedule: Q07DX Z (ip), vehicle: saline): 3 of 6 | survivor count (T/C endpoint: mean survival time, dose: 800.0 mg/kg/injection, schedule: Q08DX002 (ip), vehicle: saline): 9 of 10 | survivor count (T/C endpoint: mean survival time, dose: 1600.0 mg/kg/injection, schedule: Q07DX Z (ip), vehicle: saline): 2 of 6 | T/C (T/C endpoint: median survival time, dose: 62.5 mg/kg/injection, schedule: Q01DX001 (ip), vehicle: steroid suspending solution): 144 % of control | T/C (T/C endpoint: median survival time, dose: 100.0 mg/kg/injection, schedule: Q01DX009 (sc), vehicle: steroid suspending solution): 127 % of control | survivor count (T/C endpoint: median survival time, dose: 200.0 mg/kg/injection, schedule: Q01DX009 (ip), vehicle: steroid suspending solution): 8 of 8 | survivor count (T/C endpoint: median survival time, dose: 200.0 mg/kg/injection, schedule: Q04DX003 (ip), vehicle: steroid suspending solution): 8 of 8 | T/C (T/C endpoint: median survival time, dose: 250.0 mg/kg/injection, schedule: Q01DX001 (ip), vehicle: steroid suspending solution): 127 % of control | survivor count (T/C endpoint: median survival time, dose: 400.0 mg/kg/injection, schedule: Q04DX003 (ip), vehicle: steroid suspending solution): 8 of 8 | survivor count (T/C endpoint: median survival time, dose: 500.0 mg/kg/injection, schedule: Q01DX001 (ip), vehicle: steroid suspending solution): 6 of 8 | survivor count (T/C endpoint: median survival time, dose: 1000.0 mg/kg/injection, schedule: Q01DX001 (ip), vehicle: steroid suspending solution): 1 of 8 | survivor count (T/C endpoint: median survival time, dose: 2000.0 mg/kg/injection, schedule: Q01DX001 (sc), vehicle: steroid suspending solution): 1 of 8
